# Measurements reported in PubChem BioAssay AID743121 (NCATS, 2013)
# Assay: 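Genes whose silencing strengthens cell killing by camptothecin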 (primary screen)
# Cell system: MDA-MB-231 cells, a human breast cancer line
# Knock-down reagent: single siRNA against human genes, 20 nM siRNA (0.8 pmol per well)
# Duration: 120 h (drug added 48 h after transfection, read 72 h later)
# Challenge: camptothecin 20 nM (about EC30) for 72 h; vehicle 0.1% DMSO in parallel plates
# Read-out: 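CellTiter-Glo ATP signal, scaled to control siRNA as percent viability; sensitisation given as log2 of untreated divided by camptothecin-treated viability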
# Direction: log2 vehicle/camptothecin viability: higher = stronger sensitisation to camptothecin
# Call rule: 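Active genes have an RSA gene-level p-value below 0.001, computed from the ratios of their separate siRNAs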
# Here is an unselected part of about 26,000 reagents. 167 of them (0.63%) were called active. 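Calls are per gene from RSA p-values that are not deposited; an individual active-marked siRNA can sensitise only weakly.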 Further read-outs or replicates are left out here.
gene,PubChem SID,log2 vehicle/camptothecin viability,call
RNF125,SID164481657,0.226,inactive
RNF125,SID164481659,-0.209,inactive
RNF125,SID164481661,0.472,inactive
RASSF3,SID164614443,-0.0796,inactive
RASSF3,SID164614444,0.028,inactive
RASSF3,SID164614448,-0.116,inactive
RASSF3,SID164614449,-0.176,inactive
RASSF4,SID164542303,-0.0224,inactive
RASSF4,SID164542304,0.244,inactive
RASSF4,SID164542306,-0.402,inactive
RASSF4,SID164542309,-0.198,inactive
RXRG,SID164386706,0.385,inactive
RXRG,SID164386710,-0.286,inactive
RXRG,SID164386711,-0.0427,inactive
RXRG,SID164386712,-0.191,inactive
HMSD,SID164615759,-0.245,inactive
HMSD,SID164615760,-0.128,inactive
HMSD,SID164615762,-0.18,inactive
SSH2,SID164548872,0.193,inactive
SSH2,SID164548873,-0.56,inactive
SSH2,SID164548875,-0.105,inactive
SSH2,SID164548877,-0.0695,inactive
PTTG1,SID164402563,0.965,inactive
PTTG1,SID164402564,-0.456,inactive
PTTG1,SID164402567,0.289,inactive
PTTG1,SID164402570,-0.174,inactive
SCN2A,SID164387109,-0.226,inactive
SCN2A,SID164387110,-0.11,inactive
SCN2A,SID164387113,-0.176,inactive
STK17B,SID164402739,-0.343,inactive
STK17B,SID164402741,0.062,inactive
STK17B,SID164402742,-0.309,inactive
TOP2A,SID164392354,-0.769,inactive
TOP2A,SID164392355,0.00891,inactive
TOP2A,SID164392357,-0.0333,inactive
TOP2A,SID164392360,-0.519,inactive

The list goes on (9 carried over from the part before).
gene,PubChem SID,log2 vehicle/camptothecin viability,call
SCN2A,SID164387110,-0.11,inactive
SCN2A,SID164387113,-0.176,inactive
STK17B,SID164402739,-0.343,inactive
STK17B,SID164402741,0.062,inactive
STK17B,SID164402742,-0.309,inactive
TOP2A,SID164392354,-0.769,inactive
TOP2A,SID164392355,0.00891,inactive
TOP2A,SID164392357,-0.0333,inactive
TOP2A,SID164392360,-0.519,inactive
MPST,SID164376046,-0.139,inactive
MPST,SID164376047,-0.0367,inactive
MPST,SID164376050,-0.566,inactive
MPST,SID164376051,-0.18,inactive
VPREB3,SID164468024,-0.274,inactive
VPREB3,SID164468025,0.146,inactive
VPREB3,SID164468026,0.0383,inactive
VPREB3,SID164468027,-0.0035,inactive
TULP3,SID164393001,0.119,inactive
TULP3,SID164393003,-0.23,inactive
TULP3,SID164393005,-0.0321,inactive
TULP3,SID164393007,0.0366,inactive
CCL11,SID164387307,-0.0933,inactive
CCL11,SID164387310,-0.373,inactive
CCL11,SID164387312,-0.146,inactive
CCL11,SID164387314,0.0784,inactive
PTPRM,SID164384022,-0.393,inactive
PTPRM,SID164384023,-0.186,inactive
PTPRM,SID164384024,0.268,inactive
PTPRM,SID164384026,-0.177,inactive
CYTH2,SID164402756,-0.17,inactive
CYTH2,SID164402758,0.00589,inactive
CYTH2,SID164402760,0.64,inactive
NCBP2,SID164444467,-0.733,inactive
NCBP2,SID164444468,-0.6,inactive
NCBP2,SID164444469,0.0601,inactive
NCBP2,SID164444470,0.0448,inactive
CPNE4,SID164569531,0.762,inactive
CPNE4,SID164569533,-0.0534,inactive
CPNE4,SID164569536,-0.212,inactive
RAB3C,SID164562702,0.0338,inactive
RAB3C,SID164562704,-0.33,inactive
RAB3C,SID164562705,-0.607,inactive
